The values below come from paper PMC10938814.

Amino acid sequences for entries named in this document (tags omitted). A change or cut given only in a name is not applied to a line headed by its entry.
UniProt Q8BK06: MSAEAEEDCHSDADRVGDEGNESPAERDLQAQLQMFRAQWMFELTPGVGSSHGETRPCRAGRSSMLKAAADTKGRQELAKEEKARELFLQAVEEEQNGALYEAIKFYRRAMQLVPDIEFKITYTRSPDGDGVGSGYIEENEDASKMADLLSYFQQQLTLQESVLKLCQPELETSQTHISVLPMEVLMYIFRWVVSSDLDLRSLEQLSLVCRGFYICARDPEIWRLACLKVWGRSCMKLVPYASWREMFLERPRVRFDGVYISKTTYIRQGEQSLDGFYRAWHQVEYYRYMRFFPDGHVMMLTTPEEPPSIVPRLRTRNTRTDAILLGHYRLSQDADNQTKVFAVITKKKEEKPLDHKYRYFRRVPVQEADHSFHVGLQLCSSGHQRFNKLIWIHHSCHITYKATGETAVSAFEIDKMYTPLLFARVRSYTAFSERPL
UniProt P50516: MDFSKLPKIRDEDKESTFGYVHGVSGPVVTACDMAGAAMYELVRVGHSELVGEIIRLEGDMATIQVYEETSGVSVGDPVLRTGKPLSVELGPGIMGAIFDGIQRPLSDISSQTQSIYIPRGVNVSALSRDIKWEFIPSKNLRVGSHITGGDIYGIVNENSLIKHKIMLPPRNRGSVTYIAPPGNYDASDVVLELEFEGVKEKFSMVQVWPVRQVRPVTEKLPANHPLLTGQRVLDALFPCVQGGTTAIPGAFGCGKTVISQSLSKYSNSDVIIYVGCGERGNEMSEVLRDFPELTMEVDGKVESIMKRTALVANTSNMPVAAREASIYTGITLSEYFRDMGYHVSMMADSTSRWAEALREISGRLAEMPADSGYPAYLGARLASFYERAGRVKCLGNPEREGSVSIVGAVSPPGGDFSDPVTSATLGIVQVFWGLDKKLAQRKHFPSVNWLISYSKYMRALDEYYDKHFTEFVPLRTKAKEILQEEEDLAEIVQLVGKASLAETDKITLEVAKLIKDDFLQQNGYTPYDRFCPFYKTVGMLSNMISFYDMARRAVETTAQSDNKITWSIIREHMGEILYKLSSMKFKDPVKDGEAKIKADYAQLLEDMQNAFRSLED
UniProt Q9D1K2: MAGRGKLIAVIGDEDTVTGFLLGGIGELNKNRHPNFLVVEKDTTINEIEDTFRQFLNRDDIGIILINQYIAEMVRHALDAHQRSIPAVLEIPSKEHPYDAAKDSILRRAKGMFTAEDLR

These are yes or no findings as the source states them, for the method shown. In cells and extracts the contact can be indirect. Here binding means that the protein was enriched with, or labelled near, the bait; the list need not be complete.

This test has as its target FLAG-tagged Fbxo9-ΔF (stable 889DTC cell line) (mouse) (UniProt Q8BK06). The experiment in a line: affinity purification with mass spectrometry; 889DTC cells stably expressing FLAG-Fbxo9-ΔF, treated with 2 mM cross-linker DSP for 30 min at room temperature; NP-40 lysate; anti-FLAG M2 beads; five washes with PBS.

With “Atp6v1a (endogenous, 889DTC) (from UniProt P50516 1-617)”, the binding entry is given as “binds”.
The result for “Atp6v1f (endogenous, 889DTC) (from UniProt Q9D1K2 1-119)” reads “binds”.
